Assay results: PubChem BioAssay AID2685 (National Center for Advancing Translational Sciences (NCATS), 2010)
Some of the results follow. Shown are side measurements of this screen, not its main read-out; they come without a call. The list favours compounds with an active or inconclusive main result. Potencies come from curve fits of mixed quality, noted in brackets.

Assay: qHTS Assay for Lipid Storage Modulators in Drosophila S3 Cells;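 for cell number change: cells counted by Cell Tracker Red CMTPX staining in the red channel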
Settings: BODIPY lipid droplet fluorescence, 18-24 h; for cell number change: measured here: cell count max response, cells fed with added oleic acid
Procedure, shortened: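 Laser-scanning cytometry quantifies lipid droplet accumulation (500–530 nm total intensity; droplet/cell object ratio) in oleic acid-fed (400 uM added) Drosophila S3 cells treated with a concentration series. 20 uM Triacsin C defined 100% inhibition.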

[1] = measured here: cell number channel AC50, cells fed with added oleic acid
[2] = measured here: lipid fluorescence (Fed channel) AC50, cells fed with added oleic acid

Compound	cell number change	AC50 [1]	AC50 [2]
Cc1nc2c3ccccc3n(Cc3ccccc3F)c2s1	-62.6%	29.1 µM [falling, single point]	0.731 µM [rising, single point]
CCOCCc1nnc(N)s1	9.62%	–	29.1 µM [falling, partial curve]
COc1ccc2ccc(O)c(CN3CCN(S(=O)(=O)c4cc([N+](=O)[O-])ccc4C)CC3)c2c1	-8.84%	–	2.06 µM [rising, full curve, poor fit]
Cn1c(=O)c(C(=O)COC(=O)c2cc(-c3ccccc3)nc3ccccc23)c(N)n(Cc2ccccc2)c1=O	-13%	–	1.3 µM [rising, partial curve]
Cc1c(Cl)c([N+](=O)[O-])nn1CC(=O)N1CCCc2ccccc21	22%	0.00461 µM [rising, full curve, poor fit]	16.4 µM [rising, single point]
O=C(CN(Cc1ccc(F)cc1)C(=O)CCC(=O)Nc1ccccn1)NCCc1ccccc1	19.4%	0.231 µM [rising, full curve, poor fit]	0.58 µM [rising, single point]
NS(=O)(=O)c1ccc(CNC(=O)c2ccc(S(=O)(=O)NCc3ccco3)cc2)cc1	5.18%	–	16.4 µM [rising, partial curve]
Cc1cc(NC(=O)C2CC(c3ccc(Cl)cc3)=NO2)no1 (stereo not given)	-24.2%	–	0.116 µM [falling, full curve, poor fit]
Cn1cc([N+](=O)[O-])c(C(=O)Nc2ccc(-c3nc4ccccc4[nH]3)cc2)n1	30.1%	1.64 µM [rising, partial curve]	0.231 µM [rising, full curve, poor fit]
CCCC1C(=O)N2C(N(C)C)=Nc3ccc(C)cc3N2C1=O (stereo not given)	21.5%	–	20.6 µM [rising, single point]
COC(=O)c1[nH]c2ccccc2c1CN1CCOCC1	-3.65%	–	4.11 µM [rising, single point]
CC1CCOC2(O1)C(=O)N(CN1CCN(c3ccccc3F)CC1)c1ccccc12 (stereo not given)	2.87%	–	–
O=C(O)CC(SCC(=O)Nc1ccc(S(=O)(=O)N2CCCC2)cc1)C(=O)O (stereo not given)	-31.4%	–	29.1 µM [falling, single point]
CNC(=O)CSCc1c(Cl)cccc1Cl	-3.65%	6.51 µM [falling, single point]	20.6 µM [falling, single point]
CCOC(=O)C(C(=O)OCC)c1cc(Br)c2noc3c2c1C(=O)c1ccccc1-3	-78.8%	13 µM [falling, partial curve, poor fit]	0.00517 µM [falling, full curve, poor fit]
COc1cc(NC(=O)c2ccc(Br)cc2)c(OC)cc1NC(=O)c1ccccc1	–	–	29.1 µM [falling, single point]
O=C(CCCSc1ccccc1)Nc1nc(-c2ccccn2)cs1	–	0.651 µM [rising, single point]	0.731 µM [rising, single point]
Cc1cc(C=NCCO)c(C)n1-c1cc(Cl)ccc1Cl	14%	0.13 µM [falling, full curve, poor fit]	–
CCOC(=O)c1cnc2c(F)ccc(F)c2c1Sc1ccccc1	-13%	–	32.6 µM [falling, single point]
CC(/C=C/c1ccccc1)=N/O	15.5%	–	18.4 µM [rising, partial curve]

Compound	cell number change	AC50 [1]	AC50 [2]
O=C(Nc1cc2c(cc1Cl)OCCCO2)c1ccccc1	43.1%	20.6 µM [rising, partial curve, poor fit]	2.91 µM [rising, single point]
COc1ccc(/C=C2/SC(=S)N(CCCC(=O)Nc3ccc(O)cc3)C2=O)cc1	-39.7%	–	–
Cc1ccc(SCCCCN2CCOCC2)cc1	8.99%	–	–
O=C(c1ccc(Br)cc1)C1CCc2occc2C1=O (stereo not given)	26.1%	–	4.61 µM [falling, single point]
CCn1cc(C(=O)N2CCc3ccccc32)c(=O)c2cc(S(=O)(=O)N3CC(C)CC(C)C3)ccc21 (stereo not given)	6.41%	–	2.06 µM [rising, partial curve, poor fit]
COc1cccc(NC(=O)CSCC(=O)O)c1	–	–	29.1 µM [falling, single point]
Cc1ccc(C)c(OCCC(=O)Nc2cccc(S(=O)(=O)N3CCCCC3)c2)c1	–	–	8.2 µM [falling, partial curve]
O=C(CCn1c(=O)[nH]c2ccccc2c1=O)N1CCN(c2cccc(C(F)(F)F)c2)CC1	-26.8%	–	29.1 µM [falling, single point]
[O-]/C(=C(\C(=S)Nc1cccc2ccccc12)[n+]1ccccc1)c1ccc(Cl)s1	-18.6%	–	–
COc1ccc(NC(=O)c2cccc(S(=O)(=O)N3CCCCC3)c2)c(OC)c1	–	–	20.6 µM [rising, single point]
O=C(Cc1cccc(NC(=O)C2CCCN(C(=O)C3CC3)C2)c1)Nc1cccc(C(=O)N2CCCC2)c1 (stereo not given)	-27.9%	–	2.31 µM [falling, partial curve, poor fit]
COc1ccc(-c2csc(NC(=O)c3ccc(S(=O)(=O)N4CCc5ccccc5C4)cc3)n2)c(OC)c1	18.9%	–	1.16 µM [rising, full curve]
CCOC(=O)N/N=C/c1ccccc1OCc1ccc(Cl)cc1	–	–	29.1 µM [rising, single point]
CCOC(=O)/C(=C\c1ccc(OC(F)F)cc1)C1=Nn2c(nnc2-c2ccc(Cl)cc2)SC1	-10.9%	0.461 µM [falling, partial curve, poor fit]	1.03 µM [falling, partial curve, poor fit]
O=c1cc(CSc2nnc(COc3ccccc3)o2)c2ccccc2[nH]1	-4.36%	–	5.8 µM [rising, partial curve]
O=c1c(-c2ccccc2)nnc2sc(COc3ccc(Br)cc3)nn12	–	6.51 µM [rising, single point]	–
COc1ccc(CC(=O)c2ccc(OC3OC(CO)C(O)C(O)C3O)cc2O)cc1 (stereo not given)	-17%	–	0.103 µM [falling, full curve, poor fit]
COc1cc(OC)cc(C(=O)Nc2ccc(N3CCOCC3)cc2N2CCOCC2)c1	4%	–	0.00461 µM [falling, full curve]
Fc1cccc(-c2oncc2-c2nnnn2-c2ccc(Cl)cc2)c1	-1.37%	–	0.291 µM [rising, partial curve, poor fit]
CC(=O)N1N=C(c2ccc(Br)cc2)OC1(C)CC(=O)Nc1ccccc1 (stereo not given)	3.35%	–	0.058 µM [rising, full curve, poor fit]

2 successive compounds from above, quoted:
Compound	cell number change	AC50 [1]	AC50 [2]
O=C(Nc1cc2c(cc1Cl)OCCCO2)c1ccccc1	43.1%	20.6 µM [rising, partial curve, poor fit]	2.91 µM [rising, single point]
COc1ccc(/C=C2/SC(=S)N(CCCC(=O)Nc3ccc(O)cc3)C2=O)cc1	-39.7%	–	–

Next results:

Compound	cell number change	AC50 [1]	AC50 [2]
COc1ccc(/C=C/C(=O)Oc2ccc(/C=N/NC(=O)c3ccccc3)cc2)cc1OC	-20.8%	–	29.1 µM [falling, single point]
COc1ccc(-c2oc(NC(=O)CSc3nncn3C)c(C#N)c2-c2ccc(OC)cc2)cc1	–	6.51 µM [rising, single point]	6.51 µM [rising, single point]
COc1ccc(C(CNC(=O)CSc2ccccc2F)N2CCOCC2)cc1 (stereo not given)	-8.97%	–	29.1 µM [falling, single point]
CC(=O)N1CCN(S(=O)(=O)c2cccc(C(=O)N(C)Cc3ccc(C)o3)c2)CC1	15.7%	–	–
COc1cc(CNc2ccc3[nH]c(=O)[nH]c3c2)ccc1OCc1ccc(C)cc1	155%	29.1 µM [rising, single point]	29.1 µM [rising, partial curve]
Cc1ccc(C(=O)NNC(=O)CSc2n[nH]c(-c3cccnc3)n2)cc1	13.4%	0.0116 µM [falling, full curve, poor fit]	–
Cn1c(CN2CCOCC2)nc2cc(NC(=O)c3ccc(F)cc3)ccc21	6.75%	–	–
O=C(Nc1ccc(F)cc1)c1ccc2c(c1)S(=O)(=O)N=C1CCCCCN12	-3.93%	–	6.51 µM [rising, single point]
CC(C)[C@]1(c2ccc(Cl)cc2)ON(c2ccccc2C(F)(F)F)C1=O	-48.5%	5.17 µM [falling, single point]	0.00517 µM [rising, full curve, poor fit]
COC(=O)c1[nH]c2c(c1C)C(=O)CC(c1ccc(OC)c(OC)c1)C2 (stereo not given)	-16.1%	–	–
CCc1ccc(NC(=O)COc2ccc3c(c2)OCO3)cc1	14.2%	–	–
O=C1Nc2ccccc2/C1=C/c1ccnc2ccccc12	-33.3%	–	–
Cc1ccccc1OCC(O)Cn1c(NCc2ccccc2)nc2c1c(=O)[nH]c(=O)n2C (stereo not given)	-4.03%	–	25.9 µM [falling, single point]
O=C1OC/C(=C(/O)c2ccc(Cl)cc2)C1=O	15.9%	–	–
COc1cccc(C(=O)NCC(c2ccco2)N2CCc3ccccc3C2)c1 (stereo not given)	17.9%	–	16.4 µM [rising, partial curve]
CCN(CC)C(=O)Cn1cc(C(=O)C(=O)N(CC)C2CCCCC2)c2ccccc21	2.6%	–	–
CN(Cc1nc2ccccc2c(=O)[nH]1)C(=O)COc1ccccc1Cc1ccccc1	9.21%	–	0.58 µM [rising, full curve, poor fit]
NS(=O)(=O)c1ccc(CNC(=O)c2cc(=O)[nH]c3ccccc23)cc1	10.1%	–	–
CC(=O)Nc1ccc(N2CCc3c(C)c(C#N)c4nc5ccccc5n4c32)cc1	16.7%	3.26 µM [rising, single point]	–

Among those listed so far, these have a COOH group:
Compound	cell number change	AC50 [1]	AC50 [2]
O=C(O)CC(SCC(=O)Nc1ccc(S(=O)(=O)N2CCCC2)cc1)C(=O)O (stereo not given)	-31.4%	–	29.1 µM [falling, single point]
COc1cccc(NC(=O)CSCC(=O)O)c1	–	–	29.1 µM [falling, single point]
